Source: PubChem BioAssay AID602196 (INSERM, 2012)
Assay: 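Modifiers of cisplatin sensitivity in A549 cells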. Cells: human A549 lung cancer cells. Reagents: siRNA pair against human genes. Duration: 48 h transfection before cisplatin; time from cisplatin to read-out not stated. Conditions: cisplatin at a dose killing half of control-siRNA cells; exact dose and duration not given. Detection: 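Cisplatin cell death as a shift from the 50% death seen with control siRNA; siRNAs toxic or growth-blocking alone scored 0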. Reading the numbers: two-siRNA summed score (-2 to +2): higher = both siRNAs protect from cisplatin killing; -2 means both sensitise; mean protection from cisplatin (shift in death): higher = protection from cisplatin killing. Hit rule: 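Each siRNA scores 0 if harmful alone by LDH or WST-1, otherwise +1 if it reduces and -1 if it increases cisplatin killing; a gene is active when both siRNAs agree (sum +2 or -2)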. Calls: active = both siRNAs shift cisplatin killing the same way; inactive = no consistent shift, or siRNA harmful alone.
The whole screen tested about 23,000 reagents; shown is an unselected part. 455 of all reagents (2%) count as active. 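Active includes both protection and sensitisation; some change values fall well beyond the stated -50 to +50 range.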 Unmarked entries are inactive. Further read-outs or replicates are left out here. Reagent sequences are not shown. Not given: the amount of reagent.

Against MYCBP2 (MYC binding protein 2), the values are two-siRNA summed score (-2 to +2) = -1; mean protection from cisplatin (shift in death) (%) = -17.9.
Knock-down of CDK11B (cyclin dependent kinase 11B) gave: two-siRNA summed score (-2 to +2) = 0; mean protection from cisplatin (shift in death) (%) = -3.4.
Depletion of GOLT1A (golgi transport 1A) came out at: two-siRNA summed score (-2 to +2) = 2 (active); mean protection from cisplatin (shift in death) (%) = 18.6.
After knock-down of EZR (ezrin), the record shows two-siRNA summed score (-2 to +2) = -1; mean protection from cisplatin (shift in death) (%) = -13.2.
Depletion of WASHC3 (WASH complex subunit 3) came out at: two-siRNA summed score (-2 to +2) = 0; mean protection from cisplatin (shift in death) (%) = 8.9.
After knock-down of CDADC1 (cytidine and dCMP deaminase domain containing 1) the results were two-siRNA summed score (-2 to +2) = -1; mean protection from cisplatin (shift in death) (%) = -9.4.
For ALDH1B1 (aldehyde dehydrogenase 1 family member B1) the deposit lists two-siRNA summed score (-2 to +2) = -1; mean protection from cisplatin (shift in death) (%) = -6.5.
Silencing of TAF1C came out at: two-siRNA summed score (-2 to +2) = 0; mean protection from cisplatin (shift in death) (%) = 12.2.
CNTRL (centriolin) scored two-siRNA summed score (-2 to +2) = -1; mean protection from cisplatin (shift in death) (%) = -19.6.
Depletion of PRECSIT came out at: two-siRNA summed score (-2 to +2) = 0; mean protection from cisplatin (shift in death) (%) = 1.1.
Silencing of NUP62 (nucleoporin 62) resulted in: two-siRNA summed score (-2 to +2) = -1; mean protection from cisplatin (shift in death) (%) = -24.
After knock-down of CAMK1 (calcium/calmodulin dependent protein kinase I), the record shows two-siRNA summed score (-2 to +2) = 1; mean protection from cisplatin (shift in death) (%) = 20.1.
After knock-down of YTHDF2 (YTH N6-methyladenosine RNA binding protein F2), the record shows two-siRNA summed score (-2 to +2) = 0; mean protection from cisplatin (shift in death) (%) = 4.5.
IHH (Indian hedgehog signaling molecule) gave two-siRNA summed score (-2 to +2) = 0; mean protection from cisplatin (shift in death) (%) = -12.1.
Silencing of LOC197387 (retired record) came out at: two-siRNA summed score (-2 to +2) = 1; mean protection from cisplatin (shift in death) (%) = 11.4.
With knock-down of IFIT5 (interferon induced protein with tetratricopeptide repeats 5) the results were two-siRNA summed score (-2 to +2) = 0; mean protection from cisplatin (shift in death) (%) = 6.6.
NPM1 (nucleophosmin 1) gave two-siRNA summed score (-2 to +2) = 0; mean protection from cisplatin (shift in death) (%) = 11.1.
After knock-down of ANPEP (alanyl aminopeptidase, membrane), the record shows two-siRNA summed score (-2 to +2) = -1; mean protection from cisplatin (shift in death) (%) = -8.3.
Silencing of DCP1A (decapping mRNA 1A) gave: two-siRNA summed score (-2 to +2) = 0; mean protection from cisplatin (shift in death) (%) = 5.4.
VRTN (vertebrae development associated) scored two-siRNA summed score (-2 to +2) = 0; mean protection from cisplatin (shift in death) (%) = 21.4.
GPR107 (G protein-coupled receptor 107) showed two-siRNA summed score (-2 to +2) = 0; mean protection from cisplatin (shift in death) (%) = -1.3.
FAS (Fas cell surface death receptor) showed two-siRNA summed score (-2 to +2) = 0; mean protection from cisplatin (shift in death) (%) = -8.1.
For LOC387934 the deposit lists two-siRNA summed score (-2 to +2) = 1; mean protection from cisplatin (shift in death) (%) = 2.5.

Reformatted: 2 of the entries above
Target gene	two-siRNA summed score (-2 to +2)	mean protection from cisplatin (shift in death) (%)
DCP1A (decapping mRNA 1A)	0	5.4
VRTN (vertebrae development associated)	0	21.4

The list goes on:
LOC440307 gave two-siRNA summed score (-2 to +2) = 0; mean protection from cisplatin (shift in death) (%) = 5.
Against OR10H4 (olfactory receptor family 10 subfamily H member 4), the values are two-siRNA summed score (-2 to +2) = 0; mean protection from cisplatin (shift in death) (%) = 11.1.
After knock-down of ZNF671 (zinc finger protein 671) the results were two-siRNA summed score (-2 to +2) = 0; mean protection from cisplatin (shift in death) (%) = 4.2.
With knock-down of LOC388353, the record shows two-siRNA summed score (-2 to +2) = 1; mean protection from cisplatin (shift in death) (%) = 12.2.
For DNM1P35 (dynamin 1 pseudogene 35), the entry reads two-siRNA summed score (-2 to +2) = 1; mean protection from cisplatin (shift in death) (%) = 9.7.
FLJ45966 scored two-siRNA summed score (-2 to +2) = 1; mean protection from cisplatin (shift in death) (%) = 10.1.
With knock-down of KBTBD8 (kelch repeat and BTB domain containing 8), the record shows two-siRNA summed score (-2 to +2) = 0; mean protection from cisplatin (shift in death) (%) = -2.5.
Against LZTS1 (leucine zipper tumor suppressor 1), the entry reads two-siRNA summed score (-2 to +2) = -1; mean protection from cisplatin (shift in death) (%) = -2.
With knock-down of KIAA1571, the record shows two-siRNA summed score (-2 to +2) = 0; mean protection from cisplatin (shift in death) (%) = 5.8.
With knock-down of LOC120126, the record shows two-siRNA summed score (-2 to +2) = 0; mean protection from cisplatin (shift in death) (%) = 2.4.
Against SPSB1 (splA/ryanodine receptor domain and SOCS box containing 1), the values are two-siRNA summed score (-2 to +2) = 1; mean protection from cisplatin (shift in death) (%) = 15.3.
Knock-down of LYSMD2 (LysM domain containing 2) came out at: two-siRNA summed score (-2 to +2) = 0; mean protection from cisplatin (shift in death) (%) = 2.
For CLGN (calmegin) the deposit lists two-siRNA summed score (-2 to +2) = 0; mean protection from cisplatin (shift in death) (%) = 4.3.
With knock-down of GHSR (growth hormone secretagogue receptor), the screen gave two-siRNA summed score (-2 to +2) = 0; mean protection from cisplatin (shift in death) (%) = -7.8.
LOC196415 gave two-siRNA summed score (-2 to +2) = 0; mean protection from cisplatin (shift in death) (%) = 2.5.
Knock-down of CD36 (CD36 molecule (CD36 blood group)) came out at: two-siRNA summed score (-2 to +2) = 0; mean protection from cisplatin (shift in death) (%) = 7.7.
Silencing of DNAI7 (dynein axonemal intermediate chain 7) came out at: two-siRNA summed score (-2 to +2) = 0; mean protection from cisplatin (shift in death) (%) = -3.6.
